Measurements reported in PubChem BioAssay AID1159578 (Peter MacCallum Cancer Centre, 2015)
Shown is one part, drawn at random, of about 18,000 deposited reagents. About 1,030 of all reagents (5.7%) count as active. 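Inactive calls also include pools with fewer than 3300 nuclei, whose migration was not assessed.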 Raw values vary from plate to plate and are shown uncorrected. Further read-outs or replicates are left out here.

Screen: 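Genome-wide hunt for genes controlling movement of lymphatic endothelial cells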 (primary screen)
Cell system: human lymphatic endothelial cells
Knock-down reagent: siRNA pool against human genes, 40 nM
Time to read-out: 48 h after transfection
Measured: 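Cells stained with dye and imaged after a scratch; covered wound area and nuclei counted, duplicates averaged, migration set against mock wells and turned into a robust z-score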
Direction: migration robust z-score: higher = faster migration into the scratch; nuclei per well: higher = more cells in the well
Active means: 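Pools averaging fewer than 3300 nuclei are never called; remaining pools count as changed when migration robust z lies outside -2 to 2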
Meaning of the calls: active = migration changed; inactive = no migration change, or too few cells

Silencing of HUS1B came out at: migration robust z-score -1.2; migration class with cell-count check migration z between -2 and 2; enough cells; nuclei per well, duplicate mean 4642; inactive.
Knock-down of LUM resulted in: migration robust z-score -0.05; migration class with cell-count check migration z between -2 and 2; enough cells; nuclei per well, duplicate mean 5981; inactive.
Against GNAT1 the deposit lists migration robust z-score 0.03; migration class with cell-count check migration z between -2 and 2; enough cells; nuclei per well, duplicate mean 5838; inactive.
For BAG1 the deposit lists migration robust z-score 1.4; migration class with cell-count check migration z between -2 and 2; enough cells; nuclei per well, duplicate mean 5180; inactive.
PTGS1 showed migration robust z-score -0.94; migration class with cell-count check migration z between -2 and 2; enough cells; nuclei per well, duplicate mean 5362; inactive.
LRRC34 showed migration robust z-score -0.22; migration class with cell-count check migration z between -2 and 2; enough cells; nuclei per well, duplicate mean 7006; inactive.
GATC scored migration robust z-score 0.6; migration class with cell-count check migration z between -2 and 2; enough cells; nuclei per well, duplicate mean 5314; inactive.
ARL13A gave migration robust z-score 0.46; migration class with cell-count check migration z between -2 and 2; enough cells; nuclei per well, duplicate mean 5638; inactive.
Against FLT4 the deposit lists migration robust z-score -5.21; migration class with cell-count check under 3300 nuclei; migration not judged; nuclei per well, duplicate mean 3166; inactive.
Depletion of RPL34 came out at: migration robust z-score 0.6; migration class with cell-count check migration z between -2 and 2; enough cells; nuclei per well, duplicate mean 4271; inactive.
After knock-down of HTT, the screen gave migration robust z-score -1.22; migration class with cell-count check migration z between -2 and 2; enough cells; nuclei per well, duplicate mean 5086; inactive.
CFAP68 scored migration robust z-score -0.28; migration class with cell-count check migration z between -2 and 2; enough cells; nuclei per well, duplicate mean 5783; inactive.
LIMK1 scored migration robust z-score -2.39; migration class with cell-count check migration z below -2; enough cells; nuclei per well, duplicate mean 4238; active.
For AGAP2, the entry reads migration robust z-score 1.75; migration class with cell-count check migration z between -2 and 2; enough cells; nuclei per well, duplicate mean 7556; inactive.
With knock-down of GPR162, the record shows migration robust z-score -0.26; migration class with cell-count check migration z between -2 and 2; enough cells; nuclei per well, duplicate mean 5841; inactive.
Against MAMDC4 the deposit lists migration robust z-score -2.22; migration class with cell-count check migration z below -2; enough cells; nuclei per well, duplicate mean 5127; active.

Reprinted from above, 2 entries:
GPR162 | migration robust z-score = -0.26; migration class with cell-count check = migration z between -2 and 2; enough cells; nuclei per well, duplicate mean = 5841; Call = inactive
MAMDC4 | migration robust z-score = -2.22; migration class with cell-count check = migration z below -2; enough cells; nuclei per well, duplicate mean = 5127; Call = active

Continued:
For DNAH8, the values are migration robust z-score 0.36; migration class with cell-count check migration z between -2 and 2; enough cells; nuclei per well, duplicate mean 5689; inactive.
CORIN showed migration robust z-score 0.49; migration class with cell-count check migration z between -2 and 2; enough cells; nuclei per well, duplicate mean 5513; inactive.
Silencing of SLC39A11 resulted in: migration robust z-score -0.68; migration class with cell-count check migration z between -2 and 2; enough cells; nuclei per well, duplicate mean 4884; inactive.
Silencing of GABRQ resulted in: migration robust z-score 0.18; migration class with cell-count check migration z between -2 and 2; enough cells; nuclei per well, duplicate mean 5366; inactive.
Against MBNL2, the entry reads migration robust z-score -0.21; migration class with cell-count check migration z between -2 and 2; enough cells; nuclei per well, duplicate mean 5496; inactive.
Against FRRS1L, the values are migration robust z-score 0.43; migration class with cell-count check migration z between -2 and 2; enough cells; nuclei per well, duplicate mean 5082; inactive.
CCDC32 gave migration robust z-score 0.19; migration class with cell-count check migration z between -2 and 2; enough cells; nuclei per well, duplicate mean 5746; inactive.
H3C15 gave migration robust z-score -0.64; migration class with cell-count check migration z between -2 and 2; enough cells; nuclei per well, duplicate mean 6300; inactive.
Against SGPP2, the values are migration robust z-score 0.1; migration class with cell-count check migration z between -2 and 2; enough cells; nuclei per well, duplicate mean 5403; inactive.
Against UBASH3A, the values are migration robust z-score 0.85; migration class with cell-count check migration z between -2 and 2; enough cells; nuclei per well, duplicate mean 5783; inactive.
After knock-down of SSX2 the results were migration robust z-score -1.37; migration class with cell-count check migration z between -2 and 2; enough cells; nuclei per well, duplicate mean 4315; inactive.
